Experimental data: publication PMC3723494

By UniProt entry, the sequences of proteins in these tests, tags left out. Where a name states a change or a piece, a line headed by the entry shows the natural chain unless it says otherwise.
UniProt Q91YE7: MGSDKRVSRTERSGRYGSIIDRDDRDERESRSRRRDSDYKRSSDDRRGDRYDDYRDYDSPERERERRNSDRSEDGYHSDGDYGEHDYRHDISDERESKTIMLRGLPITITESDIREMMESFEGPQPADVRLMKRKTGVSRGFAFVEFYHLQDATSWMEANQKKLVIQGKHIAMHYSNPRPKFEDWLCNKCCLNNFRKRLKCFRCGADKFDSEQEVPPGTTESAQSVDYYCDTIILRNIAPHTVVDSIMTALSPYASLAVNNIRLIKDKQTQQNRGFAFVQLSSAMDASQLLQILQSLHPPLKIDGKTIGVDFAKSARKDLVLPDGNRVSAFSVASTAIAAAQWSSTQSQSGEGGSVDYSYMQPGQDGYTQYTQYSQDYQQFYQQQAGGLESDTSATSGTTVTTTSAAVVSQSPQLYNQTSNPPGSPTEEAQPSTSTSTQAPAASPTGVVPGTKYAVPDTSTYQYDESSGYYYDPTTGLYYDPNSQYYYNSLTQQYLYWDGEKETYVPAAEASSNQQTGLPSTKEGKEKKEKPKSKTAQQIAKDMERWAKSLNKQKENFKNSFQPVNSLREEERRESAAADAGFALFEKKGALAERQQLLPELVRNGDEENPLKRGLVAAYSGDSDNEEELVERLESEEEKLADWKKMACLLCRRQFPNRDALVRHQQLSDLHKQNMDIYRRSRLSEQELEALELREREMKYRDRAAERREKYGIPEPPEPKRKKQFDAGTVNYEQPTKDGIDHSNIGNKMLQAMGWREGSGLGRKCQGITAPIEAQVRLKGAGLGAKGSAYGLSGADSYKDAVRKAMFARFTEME
UniProt Q8K310: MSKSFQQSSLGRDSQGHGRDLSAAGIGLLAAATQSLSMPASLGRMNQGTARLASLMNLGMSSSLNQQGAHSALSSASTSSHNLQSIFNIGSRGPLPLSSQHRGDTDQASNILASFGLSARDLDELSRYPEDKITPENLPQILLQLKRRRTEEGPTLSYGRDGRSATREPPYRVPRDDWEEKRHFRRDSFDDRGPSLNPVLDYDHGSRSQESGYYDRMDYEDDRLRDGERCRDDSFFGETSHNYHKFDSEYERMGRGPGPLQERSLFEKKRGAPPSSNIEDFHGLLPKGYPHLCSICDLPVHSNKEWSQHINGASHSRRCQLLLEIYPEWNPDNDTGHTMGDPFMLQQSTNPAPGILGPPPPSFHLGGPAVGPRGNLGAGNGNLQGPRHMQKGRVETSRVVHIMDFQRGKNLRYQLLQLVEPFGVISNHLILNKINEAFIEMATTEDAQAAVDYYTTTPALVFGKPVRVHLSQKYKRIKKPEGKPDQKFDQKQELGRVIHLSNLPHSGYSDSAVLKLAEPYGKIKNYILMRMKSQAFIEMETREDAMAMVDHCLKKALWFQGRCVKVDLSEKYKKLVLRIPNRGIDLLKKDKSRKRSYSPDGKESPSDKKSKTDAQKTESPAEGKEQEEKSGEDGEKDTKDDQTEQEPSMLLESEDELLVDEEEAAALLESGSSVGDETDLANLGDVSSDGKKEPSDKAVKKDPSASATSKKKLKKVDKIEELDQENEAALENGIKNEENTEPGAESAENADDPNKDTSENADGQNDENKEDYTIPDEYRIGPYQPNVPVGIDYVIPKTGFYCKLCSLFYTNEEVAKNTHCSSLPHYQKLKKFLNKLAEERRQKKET
UniProt P29341: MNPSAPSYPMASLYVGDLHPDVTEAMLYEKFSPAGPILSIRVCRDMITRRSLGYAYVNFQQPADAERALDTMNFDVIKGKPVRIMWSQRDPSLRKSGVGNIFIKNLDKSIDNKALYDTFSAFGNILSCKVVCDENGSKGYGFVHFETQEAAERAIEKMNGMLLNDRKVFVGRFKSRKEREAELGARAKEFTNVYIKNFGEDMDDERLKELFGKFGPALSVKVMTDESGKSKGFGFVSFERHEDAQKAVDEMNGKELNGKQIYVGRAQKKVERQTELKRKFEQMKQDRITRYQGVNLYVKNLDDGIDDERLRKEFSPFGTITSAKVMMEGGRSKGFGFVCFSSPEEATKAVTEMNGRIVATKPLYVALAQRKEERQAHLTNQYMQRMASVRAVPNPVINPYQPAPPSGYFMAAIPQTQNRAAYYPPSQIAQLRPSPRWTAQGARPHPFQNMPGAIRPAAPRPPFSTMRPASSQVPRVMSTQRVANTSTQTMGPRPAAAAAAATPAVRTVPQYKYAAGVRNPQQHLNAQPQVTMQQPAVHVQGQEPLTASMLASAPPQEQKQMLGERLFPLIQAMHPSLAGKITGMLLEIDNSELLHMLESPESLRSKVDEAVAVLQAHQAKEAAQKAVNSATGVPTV
UniProt Q99JF8: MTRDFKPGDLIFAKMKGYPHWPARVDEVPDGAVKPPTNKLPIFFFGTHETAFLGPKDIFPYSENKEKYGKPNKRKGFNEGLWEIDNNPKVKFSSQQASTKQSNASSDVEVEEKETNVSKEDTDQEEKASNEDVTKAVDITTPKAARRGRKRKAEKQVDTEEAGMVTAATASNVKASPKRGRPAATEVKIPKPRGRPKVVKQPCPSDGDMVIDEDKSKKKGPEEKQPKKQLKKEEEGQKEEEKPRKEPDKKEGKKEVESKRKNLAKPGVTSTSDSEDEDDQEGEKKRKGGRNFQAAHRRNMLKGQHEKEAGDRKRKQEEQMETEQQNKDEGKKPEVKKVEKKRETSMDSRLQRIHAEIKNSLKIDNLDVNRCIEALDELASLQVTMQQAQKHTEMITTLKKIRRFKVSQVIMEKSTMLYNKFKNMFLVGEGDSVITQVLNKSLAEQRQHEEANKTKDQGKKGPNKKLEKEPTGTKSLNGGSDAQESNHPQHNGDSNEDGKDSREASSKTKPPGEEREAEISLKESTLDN
UniProt Q6PDM2: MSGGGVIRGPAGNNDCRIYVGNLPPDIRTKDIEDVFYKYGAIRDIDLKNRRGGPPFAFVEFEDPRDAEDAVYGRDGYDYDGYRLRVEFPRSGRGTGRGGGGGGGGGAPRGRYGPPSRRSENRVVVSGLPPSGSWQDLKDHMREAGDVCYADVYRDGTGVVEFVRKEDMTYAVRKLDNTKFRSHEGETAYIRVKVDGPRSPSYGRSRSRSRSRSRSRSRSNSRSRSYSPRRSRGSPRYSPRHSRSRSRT
UniProt Q62189: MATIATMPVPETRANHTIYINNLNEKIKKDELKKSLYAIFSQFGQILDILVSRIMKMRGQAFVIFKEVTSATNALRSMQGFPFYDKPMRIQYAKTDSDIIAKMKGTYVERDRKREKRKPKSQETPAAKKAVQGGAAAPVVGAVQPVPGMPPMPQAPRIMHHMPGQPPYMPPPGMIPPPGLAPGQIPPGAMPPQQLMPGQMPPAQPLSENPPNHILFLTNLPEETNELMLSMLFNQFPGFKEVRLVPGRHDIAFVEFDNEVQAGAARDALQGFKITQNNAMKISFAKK
UniProt O88569: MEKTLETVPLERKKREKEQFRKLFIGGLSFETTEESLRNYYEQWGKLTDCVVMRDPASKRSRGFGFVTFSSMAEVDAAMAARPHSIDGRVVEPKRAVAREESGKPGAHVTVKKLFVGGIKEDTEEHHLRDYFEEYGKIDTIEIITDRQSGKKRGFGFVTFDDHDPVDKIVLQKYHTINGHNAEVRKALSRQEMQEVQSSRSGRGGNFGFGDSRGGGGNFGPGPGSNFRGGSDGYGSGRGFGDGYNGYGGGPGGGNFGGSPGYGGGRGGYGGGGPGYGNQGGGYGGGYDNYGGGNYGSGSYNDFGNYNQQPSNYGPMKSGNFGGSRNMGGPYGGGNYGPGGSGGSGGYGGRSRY
UniProt Q8VDM6: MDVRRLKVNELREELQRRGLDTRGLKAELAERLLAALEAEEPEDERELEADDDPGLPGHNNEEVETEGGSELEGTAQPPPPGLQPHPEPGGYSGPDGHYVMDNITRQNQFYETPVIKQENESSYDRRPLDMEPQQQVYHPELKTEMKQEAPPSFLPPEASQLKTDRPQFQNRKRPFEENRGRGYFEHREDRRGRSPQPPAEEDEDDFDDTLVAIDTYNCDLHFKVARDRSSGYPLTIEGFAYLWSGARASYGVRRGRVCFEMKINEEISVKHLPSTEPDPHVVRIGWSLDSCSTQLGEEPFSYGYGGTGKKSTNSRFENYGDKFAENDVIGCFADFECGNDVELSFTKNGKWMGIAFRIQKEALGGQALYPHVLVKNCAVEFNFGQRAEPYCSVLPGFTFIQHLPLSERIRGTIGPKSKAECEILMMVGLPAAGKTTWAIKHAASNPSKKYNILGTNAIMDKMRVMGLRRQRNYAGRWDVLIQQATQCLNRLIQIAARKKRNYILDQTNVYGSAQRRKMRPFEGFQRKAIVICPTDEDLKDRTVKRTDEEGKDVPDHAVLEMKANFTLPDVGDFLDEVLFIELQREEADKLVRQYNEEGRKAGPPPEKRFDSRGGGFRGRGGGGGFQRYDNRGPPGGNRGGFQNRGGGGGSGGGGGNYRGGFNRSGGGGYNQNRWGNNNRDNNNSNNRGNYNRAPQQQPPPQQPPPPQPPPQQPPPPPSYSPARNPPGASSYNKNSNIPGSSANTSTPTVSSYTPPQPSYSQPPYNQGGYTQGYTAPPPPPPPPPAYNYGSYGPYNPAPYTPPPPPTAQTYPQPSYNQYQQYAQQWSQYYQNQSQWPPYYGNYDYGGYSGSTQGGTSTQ
UniProt P70372: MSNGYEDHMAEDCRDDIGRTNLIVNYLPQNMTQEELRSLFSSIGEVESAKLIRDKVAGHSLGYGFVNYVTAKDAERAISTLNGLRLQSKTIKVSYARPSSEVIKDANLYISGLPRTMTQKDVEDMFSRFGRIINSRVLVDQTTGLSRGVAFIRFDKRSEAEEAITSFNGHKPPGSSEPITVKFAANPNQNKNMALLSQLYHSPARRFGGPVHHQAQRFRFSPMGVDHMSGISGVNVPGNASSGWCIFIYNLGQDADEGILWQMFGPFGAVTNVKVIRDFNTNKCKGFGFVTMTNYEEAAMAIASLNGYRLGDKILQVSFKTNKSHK

B1: PSPC1 (paraspeckle component 1) (protein, UniProt Q8R326 1-523)
chain: MMLRGNLKQVRIEKNPARLRALESAAGESEPVAAAAMALTLAGEQAPPPAPSEEHPDEELGFTIDIKSFLKPGEKTYTQRCRLFVGNLPTDITEEDFKRLFERYGEPSEVFINRDRGFGFIRLESRTLAEIAKAELDGTILKSRPLRIRFATHGAALTVKNLSPVVSNELLEQAFSQFGPVEKAVVVVDDRGRATGKGFVEFAAKPPARKALERCGDGAFLLTTTPRPVIVEPMEQFDDEDGLPEKLMQKTQQYHKEREQPPRFAQPGTFEFEYASRWKALDEMEKQQREQVDRNIREAKEKLEAEMEAARHEHQLMLMRQDLMRRQEELRRLEELRNQELQKRKQIQLRHEEEHRRREEEMIRHREQEELRRQQEGGFKPNYMENREQEMRMGDMGPRGAINMGDAFSPAPAGTQGPPPMMGMNMNNRGTIPGPPMGPGPAMGPEGAANMGTPMIPDNGAVHNDRFPQGPPSQMGSPMGNRTGSETPQAPMSGVGPVSGGPGGFGRGSQGGNFEGPNKRRRY
B2: splicing factor SFPQ (proline- and glutamine-rich) (protein, UniProt Q8VIJ6 1-699)
chain: MSRDRFRSRGGGGGGFHRRGGGGGRGGLHDFRSPPPGMGLNQNRGPMGPGPGGPKPPLPPPPPHQQQQQPPPQQPPPQQPPPHQQPPPHQPPHQQPPPPPQESKPVVPQGPGSAPGVSSAPPPAVSAPPANPPTTGAPPGPGPTPTPPPAVPSTAPGPPPPSTPSSGVSTTPPQTGGPPPPPAGGAGPGPKPGPGPGGPKGGKMPGGPKPGGGPGMGAPGGHPKPPHRGGGEPRGGRQHHAPYHQQHHQGPPPGGPGPRTEEKISDSEGFKANLSLLRRPGEKTYTQRCRLFVGNLPADITEDEFKRLFAKYGEPGEVFINKGKGFGFIKLESRALAEIAKAELDDTPMRGRQLRVRFATHAAALSVRNLSPYVSNELLEEAFSQFGPIERAVVIVDDRGRSTGKGIVEFASKPAARKAFERCSEGVFLLTTTPRPVIVEPLEQLDDEDGLPEKLAQKNPMYQKERETPPRFAQHGTFEYEYSQRWKSLDEMEKQQREQVEKNMKDAKDKLESEMEDAYHEHQANLLRQDLMRRQEELRRMEELHSQEMQKRKEMQLRQEEERRRREEEMMIRQREMEEQMRRQREESYSRMGYMDPRERDMRMGGGGTMNMGDPYGSGGQKFPPLGGGGGIGYEANPGVPPATMSGSMMGSDMRTERFGQGGAGPVGGQGPRGMGPGTPAGYGRGREEYEGPNKKPRF
B3: DDX4 (DEAD (Asp-Glu-Ala-Asp) box helicase 4) (protein, UniProt Q61496 1-702)
chain: MGDEDWEAEILKPHVSSYVPVFEKDKYSSGANGDTFNRTSASSDIGESSKKENTSTTGGFGRGKGFGNRGFLNNKFEEGDSSGFWKESNNDCEDNQTRSRGFSKRGGCQDGNDSEASGPFRRGGRGSFRGCRGGFGLGRPNSESDQDQGTQRGGGLFGSRKPAASDSGNGDTYQSRSGSGRGGYKGLNEEVVTGSGKNSWKSETEGGESSDSQGPKVTYIPPPPPEDEDSIFAHYQTGINFDKYDTILVEVSGHDAPPAILTFEEANLCQTLNNNIAKAGYTKLTPVQKYSIPIVLAGRDLMACAQTGSGKTAAFLLPILAHMMRDGITASRFKELQEPECIIVAPTRELINQIYLEARKFSFGTCVRAVVIYGGTQFGHSVRQIVQGCNILCATPGRLMDIIGKEKIGLKQVKYLVLDEADRMLDMGFGPEMKKLISCPGMPSKEQRQTLLFSATFPEEIQRLAGDFLKSSYLFVAVGQVGGACRDVQQTILQVGQYSKREKLVEILRNIGDERTMVFVETKKKADFIATFLCQEKISTTSIHGDREQREREQALGDFRCGKCPVLVATSVAARGLDIENVQHVINFDLPSTIDEYVHRIGRTGRCGNTGRAISFFDTDSDNHLAQPLVKVLSDAQQDVPAWLEEIAFSTYVPPSFSSSTRGGAVFASVDTRKNYQGKHTLNTAGISSSQAPNPVDDESWD

Biological target: RBM5 (RNA binding motif 5) (mouse (endogenous in round spermatids)) (UniProt Q91YE7)
Assay: affinity purification with mass spectrometry; immunoprecipitation of RBM5 from purified round spermatid extracts with 5 ug RBM5 mouse monoclonal antibody (mouse IgG1 as control); immunocomplexes analysed by mass spectrometry; hits: Mascot score at least 40 and more than 2 unique peptides

binding | Molecule
binds | MATR3 (from UniProt Q8K310 1-846)
binds | PABP1 (polyadenylate-binding protein 1) (from UniProt P29341 1-636)
binds | PSIP1 (PC4 and SFRS1-interacting protein) (from UniProt Q99JF8 1-528)
binds | SFRS1 (serine/arginine-rich splicing factor 1) (from UniProt Q6PDM2 1-248)
binds | U1A (small nuclear ribonucleoprotein polypeptide A) (from UniProt Q62189 1-287)
binds | hnRNP A2/B1 (heterogeneous nuclear ribonucleoprotein A2/B1) (from UniProt O88569 1-353)
binds | hnRNP K (heterogeneous nuclear ribonucleoprotein K) (from UniProt P61979 1-463)
binds | hnRNP UL1 (heterogeneous nuclear ribonucleoprotein UL1) (from UniProt Q8VDM6 1-859)
binds | B1
binds | B2
binds | B3

Molecule | binding
ELAV1 (embryonic lethal abnormal vision-like protein 1) (from UniProt P70372 1-326) | binds

No constants are given. Whether binding was seen depends on the method and setting. Binding seen in cells or lysates may run through a third protein. Here binding means that the protein was enriched with, or labelled near, the bait; the list need not be complete.
